Laboratory results published in patent US20240376224A1 (University of California, published 2024).
These are yes or no findings as the source states them, for the method shown. Some binding calls cover weakened binding; strength is not graded here. For some assays here: Sequences can lack the tags named with a protein.

What was measured:
[1] = target: T1, mouse c-CDCP1 (recombinant cleaved mouse CDCP1) (mouse) (UniProt Q5U462); assay: BLI (Octet), Mouse c-CDCP1-Fc on the sensor, IgG 58 at 50, 16.7, 5.5, 1.9, 0.62 nM
T1 sequence 1: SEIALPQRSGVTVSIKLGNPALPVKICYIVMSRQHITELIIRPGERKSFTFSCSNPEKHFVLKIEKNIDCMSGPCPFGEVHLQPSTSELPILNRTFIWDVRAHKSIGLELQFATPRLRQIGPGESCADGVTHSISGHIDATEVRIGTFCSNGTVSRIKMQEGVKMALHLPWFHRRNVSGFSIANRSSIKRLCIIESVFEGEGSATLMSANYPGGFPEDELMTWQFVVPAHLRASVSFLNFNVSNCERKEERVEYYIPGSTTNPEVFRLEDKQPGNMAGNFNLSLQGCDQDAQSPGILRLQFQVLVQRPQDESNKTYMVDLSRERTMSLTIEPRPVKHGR
T1 sequence 2: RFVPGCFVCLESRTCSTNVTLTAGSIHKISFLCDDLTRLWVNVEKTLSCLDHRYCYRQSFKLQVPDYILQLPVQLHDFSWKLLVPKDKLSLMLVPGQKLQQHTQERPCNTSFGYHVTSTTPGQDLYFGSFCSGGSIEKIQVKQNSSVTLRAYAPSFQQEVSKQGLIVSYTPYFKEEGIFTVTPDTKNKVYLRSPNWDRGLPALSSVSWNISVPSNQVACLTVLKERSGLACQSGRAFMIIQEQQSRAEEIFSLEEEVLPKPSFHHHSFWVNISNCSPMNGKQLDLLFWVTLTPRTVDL

[2] = target: T1, mouse c-CDCP1 (recombinant cleaved mouse CDCP1) (mouse); assay: BLI
[3] = target: T2, c-CDCP1 (Cut 3) ectodomain (human, UniProt Q9H5V8 30-369; Q9H5V8 370-667); assay: sandwich ELISA; IgG CL03 as capture antibody, anti-CDCP1 polyclonal Ab (R&D AF2666) as detection
T2 construct: Made by co-transfection of NTF and CTF plasmids, purified by Ni-NTA (tag not described); also called cCDCP1 ECD cut 3
T2 sequence 1: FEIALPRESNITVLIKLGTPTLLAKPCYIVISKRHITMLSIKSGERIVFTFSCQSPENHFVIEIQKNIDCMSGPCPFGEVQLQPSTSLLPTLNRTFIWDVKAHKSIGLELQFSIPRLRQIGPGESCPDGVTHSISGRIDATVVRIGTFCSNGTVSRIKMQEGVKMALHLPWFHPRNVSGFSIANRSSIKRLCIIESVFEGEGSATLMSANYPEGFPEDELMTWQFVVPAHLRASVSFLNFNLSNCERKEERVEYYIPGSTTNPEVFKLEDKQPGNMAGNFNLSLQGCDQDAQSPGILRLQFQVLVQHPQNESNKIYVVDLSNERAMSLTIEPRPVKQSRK
T2 sequence 2: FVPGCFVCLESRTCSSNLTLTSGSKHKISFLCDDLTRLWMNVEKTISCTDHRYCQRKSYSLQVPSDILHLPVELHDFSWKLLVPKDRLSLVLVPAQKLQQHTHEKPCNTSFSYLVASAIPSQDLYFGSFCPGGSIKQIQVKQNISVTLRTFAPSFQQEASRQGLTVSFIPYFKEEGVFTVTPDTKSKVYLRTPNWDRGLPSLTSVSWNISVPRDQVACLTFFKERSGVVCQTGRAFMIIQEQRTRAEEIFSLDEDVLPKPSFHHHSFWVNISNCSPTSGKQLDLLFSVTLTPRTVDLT

[4] = target: T3, c-CDCP1 (Cut 2) ectodomain (human) (UniProt Q9H5V8); assay: as above
T3 sequence 1: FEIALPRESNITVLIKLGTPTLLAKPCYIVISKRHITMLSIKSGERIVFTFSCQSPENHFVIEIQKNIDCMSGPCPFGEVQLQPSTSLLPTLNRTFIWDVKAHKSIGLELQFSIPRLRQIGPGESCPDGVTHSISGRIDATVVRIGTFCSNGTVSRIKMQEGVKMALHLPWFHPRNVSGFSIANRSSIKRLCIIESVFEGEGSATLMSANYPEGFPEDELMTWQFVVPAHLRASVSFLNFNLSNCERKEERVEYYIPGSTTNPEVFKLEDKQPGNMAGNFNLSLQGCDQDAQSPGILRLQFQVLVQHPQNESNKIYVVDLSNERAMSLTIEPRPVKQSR
T3 sequence 2: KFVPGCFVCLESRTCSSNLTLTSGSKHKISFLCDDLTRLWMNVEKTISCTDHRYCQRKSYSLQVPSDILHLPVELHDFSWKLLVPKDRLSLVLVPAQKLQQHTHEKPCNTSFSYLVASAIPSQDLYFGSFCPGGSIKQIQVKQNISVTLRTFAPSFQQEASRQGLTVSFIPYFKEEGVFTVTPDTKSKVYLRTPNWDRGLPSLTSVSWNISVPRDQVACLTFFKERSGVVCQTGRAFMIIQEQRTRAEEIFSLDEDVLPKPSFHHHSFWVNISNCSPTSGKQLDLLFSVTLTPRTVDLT

[5] = target: T4, c-CDCP1 (Cut 1) ectodomain (human) (UniProt Q9H5V8); assay: as above
T4 sequence 1: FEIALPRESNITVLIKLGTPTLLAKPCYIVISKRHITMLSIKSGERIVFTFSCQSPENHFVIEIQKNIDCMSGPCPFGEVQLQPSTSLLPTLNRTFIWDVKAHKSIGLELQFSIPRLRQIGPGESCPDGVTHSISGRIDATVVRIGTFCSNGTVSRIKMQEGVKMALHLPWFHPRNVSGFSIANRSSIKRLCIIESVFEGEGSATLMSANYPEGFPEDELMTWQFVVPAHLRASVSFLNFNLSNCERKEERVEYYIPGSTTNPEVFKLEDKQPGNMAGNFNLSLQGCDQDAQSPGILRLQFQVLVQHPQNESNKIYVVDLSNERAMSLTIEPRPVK
T4 sequence 2: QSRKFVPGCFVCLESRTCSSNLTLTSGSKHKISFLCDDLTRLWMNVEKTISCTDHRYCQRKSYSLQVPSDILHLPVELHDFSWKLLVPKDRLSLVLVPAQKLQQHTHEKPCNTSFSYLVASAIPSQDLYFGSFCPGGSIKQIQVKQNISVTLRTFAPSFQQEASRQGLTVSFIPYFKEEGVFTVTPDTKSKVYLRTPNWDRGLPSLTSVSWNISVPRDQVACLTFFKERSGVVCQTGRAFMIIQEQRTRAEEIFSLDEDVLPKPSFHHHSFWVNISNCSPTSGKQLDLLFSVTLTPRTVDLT

[6] = target: T5, c-CDCP1-Fc (Cut 2) (human, UniProt Q9H5V8 30-368; Q9H5V8 369-667); assay: BLI (Octet), c-CDCP1-Fc (Cut 2) on the sensor, IgG CL03 at 100, 50, 25, 10, 5 nM
T5 construct: Co-transfection of NTF and CTF-Fc plasmids; not shown: Fc domain
T5 sequence 1: T3 sequence 1
T5 sequence 2: T3 sequence 2

[7] = target: T2, c-CDCP1 (Cut 3) ectodomain; assay: sandwich ELISA, CL03 as capture antibody, antigen titrated (ng/mL), anti-CDCP1 polyclonal antibody for detection
[8] = target: T3, c-CDCP1 (Cut 2) ectodomain (human); assay: as above
[9] = target: T4, c-CDCP1 (Cut 1) ectodomain (human); assay: as above
[10] = target: T6, c-CDCP1-Fc (Cut 1) (human, UniProt Q9H5V8 30-365; Q9H5V8 366-667); assay: BLI (Octet), c-CDCP1-Fc (Cut 1) on the sensor, IgG CL03 at 100, 50, 25, 10, 5 nM
T6 construct: Co-transfection of NTF and CTF-Fc plasmids; not shown: Fc domain
T6 sequence 1: T4 sequence 1
T6 sequence 2: T4 sequence 2

[11] = target: T7, c-CDCP1-Fc (Cut 3) (human, UniProt Q9H5V8 30-369; Q9H5V8 370-667); assay: BLI (Octet), c-CDCP1-Fc (Cut 3) on the sensor, IgG CL03 at 100, 50, 25, 10, 5 nM
T7 construct: Co-transfection of NTF and CTF-Fc plasmids; not shown: Fc domain
T7 sequence 1: T2 sequence 1
T7 sequence 2: T2 sequence 2

Measured: binding

B1: IgG 58 (antibody, V domains shown)
VH: EVQLVESGGGLVQPGGSLRLSCAASGFNVYSYSIHWVRQAPGKGLEWVASISSSSGSTSYADSVKGRFTISADTSKNTAYLQMNSLRAEDTAVYYCARYYWDPWQYASYSYLAFDYWGQGTLVTVSS
VL: MTQSPSSLSASVGDRVTITCRASQSVSSAVAWYQQKPGKAPKLLIYSASSLYSGVPSRFSGSRSGTDFTLTISSLQPEDFATYYCQQTYSGPITFGQGTKVEIKR
notes: Mouse cleaved-CDCP1-specific antibody; also called Ab58; IgG 0058
binds: [1] | [2]

B2: CL03 IgG (antibody, V domains shown)
VH: EVQLVESGGGLVQPGGSLRLSCAASGFNFSSYSIHWVRQAPGKGLEWVASIYPYSGSTYYADSVKGRFTISADTSKNTAYLQMNSLRAEDTAVYYCARQSHSYYSHTWWVSYGMDYWGQGTLVTVSS
VL: DIQMTQSPSSLSASVGDRVTITCRASQSVSSAVAWYQQKPGKAPKLLIYSASSLYSGVPSRFSGSRSGTDFTLTISSLQPEDFATYYCQQSGQRPITFGQGTKVEIKR
notes: also called IgG CL03
not listed: [1] | [2]
binds: all other assays above
